# This is one part of the list. Cut-off read from the data, not from the text of the source: active = 2 or more and inactive = the rest. Single values are uncertain here, since repeats match poorly.
# Test system: Lgr5 (MarsCy1-Lgr5-EGFP, U2OS)
# Experiment: cell-surface Lgr5 expression (SCi1 fluorescence, background-subtracted) relative to WT DMSO (fold of DMSO control); higher = more Lgr5 at the plasma membrane
# Conditions: U2OS MarsCy1-Lgr5-EGFP stable; treatment time: overnight; library: ActiProbe-5K (TimTec); 25 µM
row,Compound,cell-surface Lgr5 expression
1,COc1ccc(S(=O)(=O)N2CCc3ccccc32)cc1,inactive: 1.18
2,C1CCC(=N/Nc2c(S(N3CCCCC3)(=O)=O)cc([N+]([O-])=O)cc2)/CCC1,inactive: 1.05
3,O=[N+]([O-])C1(CO)COC2(OC1)C1CC3CC(C1)CC2C3 (stereo unspecified),inactive: 1.23
4,CCc1ccc2c(c1)C1(NN=C(c3ccc(C)cc3)S1)C(=O)N2 (stereo unspecified),inactive: 0.128
5,Clc1ccc(OCCSc2nc3ccc(Br)cc3[nH]2)cc1,inactive: 1.18
6,O=[N+]([O-])c1ccc(-n2nnc3ccccc32)c([N+](=O)[O-])c1,inactive: 1.5
7,CC(=O)OC[C@H]1O[C@@H](n2ncc(=O)[nH]c2=O)[C@H](OC(C)=O)[C@H]1OC(C)=O,inactive: 1.35
8,c1ccc(-n2nnnc2SCSc2nnnn2-c2ccccc2)cc1,inactive: 1.37
9,O=c1cc(O)c2sc3nc4c(c(C(F)(F)F)c3c2[nH]1)CCCC4,inactive: 1.3
10,CSCCC(C(=O)O)N1CNC(=S)NC1 (stereo unspecified),inactive: 1.19
11,CCCCc1[nH]nc2c1C(c1ccc(Br)s1)C(C#N)=C(N)O2 (stereo unspecified),inactive: 1.78
12,OCC1COc2ccccc2O1 (stereo unspecified),inactive: 1.2
13,Cc1noc(-c2nonc2N)n1,inactive: 0.981
14,CN1CCN(CC/C=C2\c3ccccc3Sc3ccc(S(=O)(=O)N(C)C)cc32)CC1,active: 2.47
15,S=c1[nH]ccn1-c1ccc2c(c1)OCO2,inactive: 1.06
16,O=C(c1ccc(Br)o1)N1CCCC1,inactive: 1.07
17,O=S(=O)(Nc1ccc(Cl)cn1)c1ccc(Br)cc1,inactive: 1.14
18,O=S1(=O)CCN2C=C(Br)C=C(Br)C2=N1,inactive: 1.4
19,Cc1nccn1C(C)CC(=O)O (stereo unspecified),inactive: 1.54
20,CCCCSc1nc2c(c(C(F)(F)F)c1C#N)CC(C)CC2 (stereo unspecified),inactive: 1.52
21,O=C1OC(c2ccccc2Br)=N/C1=C\c1cccc2ccccc12,inactive: 1.67
22,Brc1ccc(Cn2ccc(-n3cnnn3)n2)cc1,inactive: 1.06

row,Compound,cell-surface Lgr5 expression
1,Cn1cccc1/C=c1\sc2n(c1=O)C(N)=C(C#N)C(c1cccn1C)C=2C#N (stereo unspecified),inactive: 1.28
2,O=S(=O)(C/N=C(/NC(=S)Nc1ccccc1)c1ccccc1)c1ccccc1,inactive: 1.45
3,CC(=C\CCC1(C(N(C(O1)=O)CCC([O-])=O)(O)C)C)/C (stereo unspecified),inactive: 1.05
4,CN1C(=O)/C(=c2/sc3nc4ccccc4n3c2=O)c2ccccc21,inactive: 1.1
5,COC(=O)CCNc1n[nH]c(=O)[nH]c1=O,inactive: 0.948
6,CN(C)Cc1cc(/C=N\C2CCCCC2)c(S)s1,inactive: 1.03
7,C#CC(C)(C)NS(=O)(=O)c1cccc2nsnc12,inactive: 0.996
8,O=c1nc[nH]c2c1nc(Br)n2C1OC(CO)C(O)C1O (stereo unspecified),inactive: 1.05
9,CC(=O)N1CCCC1C(=O)O (stereo unspecified),inactive: 1.27
10,O=c1[nH]c2ccc(F)cc2c(=O)c2ccccc12,inactive: 0.908
11,CN1CCC2(CC1)Oc1ccc(Cl)cc1C1CC(c3ccc(Cl)cc3)=NN12 (stereo unspecified),inactive: 0.516
12,COc1cc(-c2nc(S)nc(N)c2C#N)cc(OC)c1OC,inactive: 1.13
13,CCC(CC)NC1=NS(=O)(=O)c2ccccc21,inactive: 1.14
14,O=c1[nH]cccc1-c1noc(-c2cnccn2)n1,inactive: 1.33
15,CC(C)(O)c1cc(C(N)=O)no1,inactive: 1.2
16,CCCCN(C)Cn1nc(O)ccc1=O,inactive: 1.38
17,Cc1nc2[nH]nc(Cl)c2c(C)c1Cl,inactive: 1.66
18,CCOC(=O)c1sc(N2N=C(C)/C(=C/c3ccc(CC)s3)C2=O)nc1C,inactive: 1.32
19,Cc1cc(Cc2cc(C(C)(C)C)c(O)c(C(C)(C)C)c2)cc(C(C)(C)C)c1,inactive: 0.806
20,O=C(O)Cn1nc(C(F)(F)F)c(Cl)c1C1CC1,inactive: 1.18
21,Nc1ccc2c(c1)OC1(CCCC1)O2,inactive: 1.02
22,c1ccc(-c2cnc3ccccc3n2)cc1,inactive: 1.28

# Four compounds already listed, ordered by SMILES length, ascending:
row,Compound,cell-surface Lgr5 expression
6,CN(C)Cc1cc(/C=N\C2CCCCC2)c(S)s1,inactive: 1.03
5,Clc1ccc(OCCSc2nc3ccc(Br)cc3[nH]2)cc1,inactive: 1.18
20,CCCCSc1nc2c(c(C(F)(F)F)c1C#N)CC(C)CC2 (stereo unspecified),inactive: 1.52
1,Cn1cccc1/C=c1\sc2n(c1=O)C(N)=C(C#N)C(c1cccn1C)C=2C#N (stereo unspecified),inactive: 1.28

# (listing goes on)

row,Compound,cell-surface Lgr5 expression
1,CSc1nc2n(n1)C(c1ccccc1)/C(=N/O)C(C)=N2 (stereo unspecified),inactive: 0.947
2,C=CCSc1nc(-c2cccnc2)ccc1C#N,inactive: 0.948
3,Cc1ccc(C2Nc3ccccc3C(C)(C)O2)o1 (stereo unspecified),inactive: 1.18
4,c1ccc(-n2nnnc2SCc2ccccn2)cc1,inactive: 1.16
5,Fc1ccc(-c2nc3sc(-c4ccc(F)cc4)nc3s2)cc1,inactive: 0.872
6,Nc1ncnc2[nH]c(SCCO)nc12,inactive: 1.32
7,CC(C)(C)c1cc(CSCCSCc2cc(C(C)(C)C)c(O)c(C(C)(C)C)c2)cc(C(C)(C)C)c1O,inactive: 0.975
8,CC(=O)OCC1OC(n2cnc3c(O)ncnc32)C(OC(C)=O)C1OC(C)=O (stereo unspecified),inactive: 1.12
9,CCS(=O)(=O)c1ccsc1S(=O)(=O)CC,inactive: 1.15
10,C=C1Oc2ccccc2C(O)=C1[N+](=O)[O-],inactive: 1.3
11,COC(=O)CSc1n[nH]c(=O)[nH]c1=O,inactive: 1.07
12,O=[N+]([O-])c1ccc2nc(SSc3nc4ccc([N+](=O)[O-])cc4s3)sc2c1,inactive: 1.58
13,CN1C(=O)N(C)C2NC(=O)NC21 (stereo unspecified),inactive: 1.28
14,C=CC[C@H]1CC(Cc2ccccc2)=C[C@H](CC=C)N1.Cl,inactive: 1.03
15,C#CCCOc1nc(N(C)C)nc(N(C)C)n1,inactive: 0.95
16,O=S(=O)(NCCSc1ccc(Cl)cc1)c1ccc2c(c1)OCCO2,inactive: 1.1
17,O=C([O-])c1nc(O)nc(O)n1.[K+],inactive: 1.02
18,CCn1cc(-c2n[nH]cc2Br)cn1,inactive: 1.03
19,C#CCSc1nnc2c(n1)[nH]c1ccccc12,inactive: 0.861
20,C=CCN(CC=C)S(=O)(=O)c1ccc(Cl)cc1,inactive: 1.22
21,Clc1ccccc1C1=Nn2c(nnc2-c2ccccn2)SC1,inactive: 1.2
22,O=C(Nc1nccs1)c1cccs1,inactive: 0.889

row,Compound,cell-surface Lgr5 expression
1,C(=N/N1CCN(c2ccccn2)CC1)/c1ccncc1,inactive: 1
2,OCc1cc2c(cc1Cl)OCO2,inactive: 0.94
3,COc1ccc(Oc2coc3cc(O)ccc3c2=O)cc1,inactive: 1.26
4,N#CC1(C#N)C(C(=O)C23CC4CC(CC(C4)C2)C3)C12CCCCC2 (stereo unspecified),inactive: 1.13
5,N#Cc1c(C#N)c(N)n(N)c1N,inactive: 1.05
6,Cc1sc2nc3c(O)cc(=S)[nH]c3c(Br)c2c1C,inactive: 1.15
7,O/N=C/Cc1[nH]c2ccccc2c1-c1ccccc1,inactive: 1.05
8,Cc1cc(C)c(S(=O)(=O)NC(C)C)c(C)c1-n1cnnn1,inactive: 1.32
9,O=C1C2C3c4ccccc4C(c4ccccc43)C2C(=O)N1c1ccccn1 (stereo unspecified),inactive: 1.35
10,CCSCCOC(=O)C1=C(C)NC2=C(C(=O)CCC2)C1c1ccc(C)o1 (stereo unspecified),inactive: 0.949
11,O=C(/N=c1/nc2ccc(Br)cn2s1)c1ccco1,active: 2.03
12,O=C(O)c1nsnc1NCCO,inactive: 1.44
13,Cc1[nH]c(=O)c(C(=O)O)c(C)c1[N+](=O)[O-],inactive: 0.956
14,COc1ccc(OC)c(S(=O)(=O)c2cc(OC)ccc2OC)c1,inactive: 1.33
15,CC1(C)C2CCC1(CS(=O)(=O)N1CCN(C(=O)c3ccco3)CC1)C(=O)C2 (stereo unspecified),inactive: 0.985
16,Cc1cc(C)n2nc(N)nc2n1,inactive: 1.44
17,CC(C)(C)C(=O)Nc1c[nH]c(=O)[nH]c1=O,inactive: 0.898
18,O=[N+]([O-])c1cc2c(cc1/C=N\c1ccc(O)cc1)OCO2,inactive: 1.15
19,C(=N/c1nccs1)/c1cccc2c1OCOC2,inactive: 1.14
20,O=[N+]([O-])c1ccc(NNc2ccccc2)c([N+](=O)[O-])c1,inactive: 0.457
21,CCCCN(CCCC)S(=O)(=O)c1nc(C)c(Cl)c(C)c1C#N,inactive: 0.889
22,N#Cc1c(-c2ccco2)cc(C2CC2)nc1N,inactive: 0.98

row,Compound,cell-surface Lgr5 expression
1,Cc1cc(C)nc(SCc2nc3ccccc3nc2C)n1,inactive: 1.06
2,Fc1ccc(C2Nc3ccc(OC(F)(F)F)cc3C3C=CCC32)cc1 (stereo unspecified),inactive: 0.815
3,Nc1cc(S(=O)(=O)c2ccc(O)c(N)c2)ccc1O,inactive: 1.18
4,CN1C(=O)C2(SCC(=O)N2c2ccccc2)c2ccccc21 (stereo unspecified),inactive: 1.29
5,CC(=O)Nc1nonc1-n1cccc1,inactive: 0.916
6,CC1(C)CC(=O)C/C(=N\NC(N)=S)C1,inactive: 1.3
7,Oc1cc2c(cc1C(c1ccc3c(c1)OCO3)N1CCOCC1)OCO2 (stereo unspecified),inactive: 1.23
8,CN(C)S(=O)(=O)c1ccc(-c2cn3cc(Cl)ccc3n2)cc1,inactive: 1.28
9,O=S(=O)(Cc1ccccc1)CC1CO1 (stereo unspecified),inactive: 1.3
10,Cc1cc(C(F)(F)F)nc(S)n1,inactive: 1.37
11,FC(F)(F)COc1ccc(-n2ccnc2)nn1,inactive: 1.06
12,CCCNc1nc(Cl)nc(NCCC)n1,inactive: 1.08
13,CCOC(=O)c1scc2c1OCCO2,inactive: 1.02
14,N#CC1=C(N)SC(N)=C(C#N)C1c1ccc([N+](=O)[O-])s1,inactive: 1.4
15,OCCNc1nc(N2CCCCC2)nc(N2CCCCC2)n1,inactive: 1.17
16,N#CC1=C(N2CCCCC2)c2cc3c(n2C1=O)CCCC3,inactive: 1.16
17,C1(=NC(=O)C(/S1)=C1\CCCCC1)N1CC(C)OC(C1)C (stereo unspecified),inactive: 1.01
18,Fc1ccc2c(c1)C1OCCC1C(c1ccco1)N2 (stereo unspecified),inactive: 1.33

# From the supplement of paper PMC4683952
